Measured values taken from patent US12472193B2, “Methods and compositions for treating and preventing respiratory related diseases and conditions with xylitol-headgroup lipid analogs” (National Jewish Health, priority 2017, dated 2025).
Some results were stated once for a whole list of compounds, not compound by compound. For at least one compound, name, drawing or mass did not settle the structure. Some ranges recur; such a range may be that of the whole group of compounds.

Molecular target: T1, TLR 4 (Mus musculus, UniProt Q9JHF9+Q9QUK6)
T1 construct: endogenous in cells; host or cells: RAW264.7 (ATCC)
T1 sequence (Q9QUK6 26-835): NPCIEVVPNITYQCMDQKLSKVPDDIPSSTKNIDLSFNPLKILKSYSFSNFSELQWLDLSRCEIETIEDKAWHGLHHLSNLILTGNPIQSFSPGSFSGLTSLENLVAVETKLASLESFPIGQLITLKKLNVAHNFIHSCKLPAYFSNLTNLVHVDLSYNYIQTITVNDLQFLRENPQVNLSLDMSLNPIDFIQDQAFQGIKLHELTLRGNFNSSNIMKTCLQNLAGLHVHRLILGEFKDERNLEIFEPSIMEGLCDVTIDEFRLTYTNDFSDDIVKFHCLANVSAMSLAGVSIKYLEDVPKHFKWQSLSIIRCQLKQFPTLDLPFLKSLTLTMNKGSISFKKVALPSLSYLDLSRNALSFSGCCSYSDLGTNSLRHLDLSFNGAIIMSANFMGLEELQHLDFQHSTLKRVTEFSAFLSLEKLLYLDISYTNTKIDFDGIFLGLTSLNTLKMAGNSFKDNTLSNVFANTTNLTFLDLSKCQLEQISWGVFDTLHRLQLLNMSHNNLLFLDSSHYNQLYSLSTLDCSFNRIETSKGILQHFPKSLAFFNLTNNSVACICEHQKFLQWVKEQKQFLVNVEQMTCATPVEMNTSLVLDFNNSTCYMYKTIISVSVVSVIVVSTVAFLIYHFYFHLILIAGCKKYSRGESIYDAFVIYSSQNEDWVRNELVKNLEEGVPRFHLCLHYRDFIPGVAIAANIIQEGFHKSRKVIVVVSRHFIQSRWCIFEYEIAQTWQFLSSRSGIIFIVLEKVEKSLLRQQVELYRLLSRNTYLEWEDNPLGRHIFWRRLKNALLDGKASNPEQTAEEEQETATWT
T1 sequence (Q9JHF9 19-160): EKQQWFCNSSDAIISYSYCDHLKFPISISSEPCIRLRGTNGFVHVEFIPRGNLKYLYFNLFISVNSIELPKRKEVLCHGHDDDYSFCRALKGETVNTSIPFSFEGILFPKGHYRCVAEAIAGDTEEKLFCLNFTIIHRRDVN
Experiment: LPS-induced TNF-α secretion by RAW264.7 cells (TLR 4 antagonism)
Type: cell-based
Conditions: RAW264.7, 10 ng/ml LPS
Method: The mouse macrophage cell line, RAW264.7, was obtained from ATCC and maintained in DMEM, supplemented with 10% bovine growth serum and 1× penicillin streptomycin. Cells were maintained at 37° C. with 5% carbon dioxide: 95% air atmosphere within the incubator. Experiments were completed in a 96-well plate where cells were seated at a density of 1×10^5 cells per well, 24 prior to stimulation with TLR agonists and antagonists. Lipids were dried under a stream of nitrogen, hydrated with phosphate-buffered saline (PBS) at 37° C. for one hour, followed by water bath sonication to create liposomes. Each condition for cell stimulation and antagonism was prepared in DMEM in a separate tube and consisted of: control, TLR agonist, TLR agonist+lipid, and lipid alone. 100 μL aliquots of medium+agonists+antagonists were added to each well and incubated at 37° C. for 4 hours. Subsequently, the media were collected, diluted and an enzyme-linked immunosorbent assay (ELISA) was performed to quantify TNFα release by cells.
The additional experiments disclosed herein, tested the initial activity of multiple POPG analogs. […] However, it was unknown how the combination of a xylitol head group along with varying hydrophobic chains affects this activity and mechanism of suppression. Varying the hydrophobic chains provides an approach for optimization of a PX lipid for maximum efficacy and uncovers important structure/function relationships. To test antagonist activity of PX lipids for preventing the activation of TLR 4, LPS was added to RAW264.7 cells at 10 ng/mL in the absence or presence of 50 μg/mL of lipid and incubated for 4 hours. After incubation, media were collected and secretion of the proinflammatory cytokine, TNFα, was quantified by ELISA as a downstream consequence of TLR 4 activation. […]
For quantitative comparisons between POPG analogs and POPG, concentration-dependent inhibition studies were performed and IC50 values were determined. […] Cells were stimulated for 4 hours followed by collection of media and quantification of TNFα released into the medium.

Structure (SMILES)	inhibitory concentration reducing TNF-α production by 50% (IC50), as shown in FIG. 3 [µg/mL]
CCCCCC=CCC=CCCCCCCCC(=O)OCC(COP(=O)(O)OCC(O)C(O)C(O)CO)OC(=O)CCCCCCCC=CCC=CCCCCC (mixture of isomers) [18:2 DLPX, sn-1-linoleoyl, sn-2-linoleoyl sn-3 glycerol phosphoxylitol]	0.3 to 0.5
CCCCCCCC/C=C\CCCCCCCC(=O)O[C@H](COC(=O)CCCCCCCCCCCCCCC)COP(=O)(O)OCC(O)C(O)C(O)CO (stereo partly drawn) [POPX, sn-1-palmitoyl, sn-2-oleoyly sn-3 glycerol phosphoxylitol]	0.3 to 0.5
CCCCCCCCC=CCCCCCCCC(=O)OCC(COP(=O)(O)OCC(O)C(O)C(O)CO)OC(=O)CCCCCCCC=CCCCCCCCC (mixture of isomers) [DOPX, sn-1-oleoyl, sn-2-oleoyl sn-3 glycerol phosphoxylitol]	0.3 to 0.5
